Data: publication PMC8517470

By UniProt entry, the sequences of proteins in these tests, tags left out. Where a name states a change or a piece, a line headed by the entry shows the natural chain unless it says otherwise.
UniProt G5IXG8: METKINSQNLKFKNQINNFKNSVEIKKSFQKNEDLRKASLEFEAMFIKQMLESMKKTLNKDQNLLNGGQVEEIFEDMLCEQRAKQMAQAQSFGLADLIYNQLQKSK

How the values were obtained:
[1] = biological target: T1, MBP tagged FlgD (BB0284) (Borrelia burgdorferi) (UniProt Q44920); assay: far-Western, overlay or dot blot; 1 μg purified MBP-tagged proteins run on SDS-PAGE and transferred to PVDF; blocked in 5% BSA, 10 mM Tris, 150 mM NaCl, 0.3% Tween 20, pH 7.4; incubated overnight with or without purified FLAG-FlgJ at 2 μg/ml in blocking solution; detected with anti-FLAG M2 antibody and ECL 2; both purified
T1 sequence: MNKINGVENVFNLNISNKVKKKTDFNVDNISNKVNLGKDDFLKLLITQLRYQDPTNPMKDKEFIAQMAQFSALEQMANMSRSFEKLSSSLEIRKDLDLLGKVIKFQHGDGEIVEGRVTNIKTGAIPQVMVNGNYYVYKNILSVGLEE

[2] = biological target: T2, MBP tagged FlgG (BB0774) (Borrelia burgdorferi) (UniProt O51715); assay: as above
T2 sequence: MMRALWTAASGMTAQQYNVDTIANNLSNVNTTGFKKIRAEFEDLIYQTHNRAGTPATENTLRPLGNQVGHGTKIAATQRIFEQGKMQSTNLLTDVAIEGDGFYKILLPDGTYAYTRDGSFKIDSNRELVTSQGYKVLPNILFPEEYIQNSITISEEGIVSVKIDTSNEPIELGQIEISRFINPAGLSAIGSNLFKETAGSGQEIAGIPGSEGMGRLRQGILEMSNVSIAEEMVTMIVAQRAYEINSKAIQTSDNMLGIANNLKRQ

binding [1]: binds | binding [2]: no binding (tested: 2 μg/ml)
Substance: 1xFLAG tagged FlgJ (BB0771a, also named BB0858) (from UniProt G5IXG8)

No constants are given. Whether binding was seen depends on the method and setting. For some assays here: A result given as binding can be weak or reduced; the word gives no strength. Tags and fused reporters may be left off the sequences shown.
